Source: paper PMC8464874
No constants are given. Whether binding was seen depends on the method and setting. In cells and extracts the contact can be indirect. Some binding calls cover weakened binding; strength is not graded here.

Amino acid sequences for entries named in this document (tags omitted). A change or cut given only in a name is not applied to a line headed by its entry. Chains listed by the source or under a name are the forms on record and can include a tag or linker. Residues count along the entry.
UniProt P27986: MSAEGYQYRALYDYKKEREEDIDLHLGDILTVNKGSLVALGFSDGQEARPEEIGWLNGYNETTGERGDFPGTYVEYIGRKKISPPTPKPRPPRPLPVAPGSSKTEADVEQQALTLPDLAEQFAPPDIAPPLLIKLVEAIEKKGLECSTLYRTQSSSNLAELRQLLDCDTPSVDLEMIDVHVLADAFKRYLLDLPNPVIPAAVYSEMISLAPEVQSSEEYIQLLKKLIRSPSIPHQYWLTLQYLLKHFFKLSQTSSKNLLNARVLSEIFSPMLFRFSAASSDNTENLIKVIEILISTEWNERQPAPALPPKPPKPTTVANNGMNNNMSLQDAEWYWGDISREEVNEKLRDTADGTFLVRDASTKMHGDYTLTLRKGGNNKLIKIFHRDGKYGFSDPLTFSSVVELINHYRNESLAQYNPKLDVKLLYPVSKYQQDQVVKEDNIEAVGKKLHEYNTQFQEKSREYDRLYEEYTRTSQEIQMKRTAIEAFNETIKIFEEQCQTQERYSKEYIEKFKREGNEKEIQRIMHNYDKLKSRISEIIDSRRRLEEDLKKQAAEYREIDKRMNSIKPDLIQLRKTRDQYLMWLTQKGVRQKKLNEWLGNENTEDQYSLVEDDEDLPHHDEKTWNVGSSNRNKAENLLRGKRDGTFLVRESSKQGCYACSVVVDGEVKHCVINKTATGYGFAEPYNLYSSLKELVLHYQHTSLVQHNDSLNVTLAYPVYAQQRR
GST-fused SH3 domain of p85 (PI3-K): residues 3-79 of P27986
UniProt P06239, residues 127-224: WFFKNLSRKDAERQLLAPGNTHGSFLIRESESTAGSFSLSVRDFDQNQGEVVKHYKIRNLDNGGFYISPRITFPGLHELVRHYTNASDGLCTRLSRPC

T1: TNF-α receptor 1 (TNFR1) (mouse (endogenous in osteoclasts)) (UniProt P25118)
T1 sequence: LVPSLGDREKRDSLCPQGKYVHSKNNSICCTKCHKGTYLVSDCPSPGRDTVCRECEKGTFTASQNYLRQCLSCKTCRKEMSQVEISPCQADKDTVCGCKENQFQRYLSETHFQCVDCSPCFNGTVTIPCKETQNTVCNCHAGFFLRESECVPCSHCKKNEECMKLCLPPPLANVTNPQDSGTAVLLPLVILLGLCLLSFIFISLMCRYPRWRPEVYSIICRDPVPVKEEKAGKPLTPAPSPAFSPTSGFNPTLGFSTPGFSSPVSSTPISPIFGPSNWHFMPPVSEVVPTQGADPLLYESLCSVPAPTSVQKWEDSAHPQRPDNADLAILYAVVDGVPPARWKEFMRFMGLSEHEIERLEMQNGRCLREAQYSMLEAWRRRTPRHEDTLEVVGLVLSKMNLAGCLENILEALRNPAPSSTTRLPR


Legend:
[1] = target: GST-fused SH2 domain of c-Src (UniProt P12931); experiment: pull-down; 5 µg GST-fusion protein on Sepharose beads incubated 2 h at 4 °C with 200 µg lysate of osteoclasts treated with TNF-α and bone particles for 3-4 h; washed with lysis buffer and cold PBS; immunoblot with LPL and TRAF-6 antibodies; only the target purified
[2] = target: GST-fused SH3 domain of p85 (PI3-K) (UniProt P27986); experiment: as above
[3] = target: GST-fused full-length PI3-K (p85) (UniProt P27986); experiment: as above
[4] = target: GST-fused SH2 domain of Lck (UniProt P06239); experiment: as above
[5] = target: T1, TNF-α receptor 1 (TNFR1) (mouse (endogenous in osteoclasts)); experiment: co-IP; lysates (RIPA buffer) of mouse osteoclasts untreated or treated with TNF-α and bone particles for 3-4 h, immunoprecipitated with an antibody to TNFR1 (nonimmune serum as control), immunoblot with TRAF-6 antibody

| binding [1] | binding [2] | binding [3] | binding [4] | binding [5] | Binder |
| --- | --- | --- | --- | --- | --- |
| binds | binds | binds | binds | – | L-plastin (LPL) (protein, UniProt Q61233 1-627) MARGSVSDEEMMELREAFAKVDTDGNGYISCNELNDLFKAACLPLPGYRVREITENLMATGDLDQDGKISFDEFIKVFHGLKSTEVAKTFRKAINKKEGICAIGGTSEQSSVGTQHSYSEEEKYAFVNWINKALENDPDCRHVIPMNPNTDDLFNAVGDGIVLCKMINLSVPDTIDERTINKKKLTPFTIQENLNLALNSASAIGCHVVNIGAEDLKEGKPYLVLGLLWQVIKIGLFADIELSRNEALIALLREGESLEDLMKLSPEELLLRWANYHLENAGCTKITNFSTDIKDSKAYYHLLEQVAPKGDEEGIPAVVIDMSGLREKDDIQRAECMLQQAERLGCRQFVTATDVVRGNPKLNLAFIANLFNKYPALHKPENQDIDWGALEGETREERTFRNWMNSLGVNPRVNHLYSDLSDALVIFQLYEKIKVPVDWNRVNKPPYPKLGGNMKKLENCNYAVDLGKNQAKFSLVGIAGQDLNEGNRTLTLALVWQLMRRYTLNILEDIGGGQKVNDDIIVNWVNTTLKEAQKSSSIASFKDPKISTSLPVLDLIDAIQPGSINYDLLKTENLDDEEKLNNAKYAISMARKIGARVYALPEDLVEVNPKMVMTVFACLMGKGMKRV |
| binds | binds | – | – | binds | TRAF-6 (protein, UniProt P70196 1-530) MSLLNCENSCGSSQSSSDCCAAMAASCSAAVKDDSVSGSASTGNLSSSFMEEIQGYDVEFDPPLESKYECPICLMALREAVQTPCGHRFCKACIIKSIRDAGHKCPVDNEILLENQLFPDNFAKREILSLTVKCPNKGCLQKMELRHLEDHQVHCEFALVNCPQCQRPFQKCQVNTHIIEDCPRRQVSCVNCAVSMAYEEKEIHDQSCPLANIICEYCGTILIREQMPNHYDLDCPTAPIPCTFSVFGCHEKMQRNHLARHLQENTQLHMRLLAQAVHNVNLALRPCDAASPSRGCRPEDPNYEETIKQLESRLVRQDHQIRELTAKMETQSMYVGELKRTIRTLEDKVAEMEAQQCNGIYIWKIGNFGMHLKSQEEERPVVIHSPGFYTGRPGYKLCMRLHLQLPTAQRCANYISLFVHTMQGEYDSHLPWPFQGTIRLTILDQSEALIRQNHEEVMDAKPELLAFQRPTIPRNPKGFGYVTFMHLEALRQGTFIKDDTLLVRCEVSTRFDMGGLRKEGFQPRSTDAGV |
